{
  "sequences": {"note": "Chains of the proteins cited; added tags and fusions are not shown. Chains listed by the source or under a name are the forms on record and can include a tag or linker.", "mGPBP cDNA clone product (lambda gt11 fusion) (Mus musculus), one chain, as listed by the source": "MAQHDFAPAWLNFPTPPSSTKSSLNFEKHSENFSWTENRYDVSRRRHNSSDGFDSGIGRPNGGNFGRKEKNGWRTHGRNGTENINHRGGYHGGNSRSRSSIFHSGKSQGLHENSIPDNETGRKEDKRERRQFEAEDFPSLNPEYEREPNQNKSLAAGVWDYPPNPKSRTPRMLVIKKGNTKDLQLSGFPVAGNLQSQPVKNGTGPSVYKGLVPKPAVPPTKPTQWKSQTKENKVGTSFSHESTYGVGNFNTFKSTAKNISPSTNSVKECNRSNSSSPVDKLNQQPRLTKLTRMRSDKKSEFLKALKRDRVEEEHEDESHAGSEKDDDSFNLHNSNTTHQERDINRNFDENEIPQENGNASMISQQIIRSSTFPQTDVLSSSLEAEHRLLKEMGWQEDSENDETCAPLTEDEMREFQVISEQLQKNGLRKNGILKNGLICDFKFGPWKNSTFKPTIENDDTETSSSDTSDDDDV"},
  "source": "patent US20050130227A1",
  "about": "(MUNIN, published 2005)",
  "tested_on": "mGPBP cDNA clone product (lambda gt11 fusion) (Mus musculus)",
  "assay": "binding assay",
  "conditions": "negative control probe in library screen; clones binding it were eliminated; protein in a lysate after overexpression; protein details: lambda gt11 expression library clone, partial cDNA",
  "note": "The exact form of at least one protein or probe is not confirmed. Results from cells or extracts need not show a direct contact. No signal at the amounts used counts as a negative.",
  "data": [
    {"sequence": "TGGGCGGGGC (double strand) [Sp1 consensus motif probe]", "values": [
      {"measurement": "binding result", "result": "no binding"}
    ]}
  ]
}
